Here are results for 18 compounds from PubChem BioAssay AID493014 (National Center for Advancing Translational Sciences (NCATS), 2011).

This is one part of the list. These are further read-outs of the screen, such as a control signal, another cell line or another target. No call is given for them. The list favours compounds with an active or inconclusive main result. Words in brackets tell the shape of the fitted curve; partial curves, single points and poor fits give uncertain potencies.

A short description of this assay: qHTS Assay to Find Inhibitors of Chronic Active B-Cell Receptor Signaling. Particulars: ABC-DLBCL IkBa-CBG/CBR reporter, luminescence ratio (green luciferase fused to IkBa over red control in TMD8 lymphoma cells), 4 h; measured here: CBR red luminescence, cell number. An outline of the steps: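 TMD8 human ABC-DLBCL cells with doxycycline-inducible IκBα–green luciferase fusion and unfused red luciferase, in 0.5% FBS medium; compounds up to 46 uM, 4 h at 37C. Green/red luminescence ratio, filter-overlap corrected, fitted to concentration-response curves.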
(In general: In qHTS, concentration-response curves come from the screen itself.)
With `CCSc1nnc(NC(=O)c2cccnc2Cl)s1`, the AC50 is 29.1 µM [falling, single point].
The result for `Cn1nc(C(F)(F)F)c(C(=O)Nc2ccc(F)cc2F)c1Cl` reads 11.2 µM [rising, partial curve]; that for `Fc1ccc(/C=N/n2c(C3CCCCC3)n[nH]c2=S)cc1`, 17.8 µM [rising, single point]; that for `CCOc1ccc(NC(=O)CSc2ncc(-c3ccc(F)cc3)n2Cc2ccco2)cc1`, 35.5 µM [falling, single point].
The result for `Cc1ccc(C)c(N2CCN(C(=O)C3CCCCN3S(=O)(=O)c3ccc(F)cc3)CC2)c1` (stereo not drawn) reads 0.731 µM [rising, full curve, poor fit]; that for `COc1ccc(CNc2ncccn2)cc1OC`, 35.5 µM [rising, partial curve, poor fit].
The value for `COc1ccc(Cl)cc1NC(=O)c1cc(-c2ccccc2O)n[nH]1` was 1.64 µM [falling, partial curve, poor fit]; that for `O=C(CSc1ncnc2ccccc12)Nc1ccc2c(c1)OCCO2` was 11.2 µM [falling, partial curve, poor fit].
`COc1ccccc1/C=C/CN1CCC(n2nccc2NC(=O)CCc2ccccc2)CC1`: the AC50 is 10 µM [falling, partial curve, poor fit].
The result for `Cc1ccc(C)c(N2CCN(S(=O)(=O)c3ccc4c(c3)CCC(=O)N4)CC2)c1` reads 20 µM [falling, single point].
The value for `CN(CC(=O)Nc1ncn[nH]1)S(=O)(=O)c1cc(Cl)ccc1Cl` was 3.55 µM [rising, single point]; that for `COc1cc(CNc2nc3ccccc3n2C)cc(OC)c1OC` was 10.3 µM [rising, partial curve, poor fit]; that for `CC(=O)Nc1ccc(S(=O)(=O)NNC(=O)COc2ccc(Cl)cc2Cl)cc1` was 0.0891 µM [rising, full curve, poor fit].
`CCOc1ccc(/C=C2\SC(=S)N(CCC(=O)N(CCO)c3ccccc3)C2=O)cc1`: the AC50 was 7.94 µM [falling, partial curve].
The value for `CN1CCN(c2ccccc2NC(=S)NC(=O)c2cc3ccccc3o2)CC1` was 11.2 µM [rising, single point].
The result for `C=CCn1c(CCNC(=O)c2ccccc2F)nnc1SCC(=O)Nc1nc2ccccc2s1` reads 3.26 µM [falling, single point].
The value for `Cc1ccc(-c2nc(CS(=O)(=O)CC(=O)NCCCN(Cc3ccccc3)C(C)C)c(C)o2)cc1` was 20 µM [falling, single point]; that for `O=C(CCSCCc1ccccn1)Nc1cc(F)ccc1F` was 35.5 µM [falling, single point].

Usually AC50 stands for the midpoint of the concentration-response curve, whichever way the signal moves.
